Tested on: HeLa cells
Experiment: Confocal microscopy of uptake and subcellular distribution in HeLa cells, co-localization with Syntaxin-6 and DAPI
Type: cell-based, human
Conditions: 1h, 1-2×10^-5 mol.L^-1, co-localization with Syntaxin-6 and DAPI
Source text: […]

Compound: CN(C)c1ccc(/C=C/C(=O)/C=C/c2ccc(N(C)C)cc2)cc1 [linear-H, (1E,4E)-1,5-bis[4-(dimethylamino)phenyl]penta-1,4-dien-3-one]
- subcellular localization: initially localize more abundantly at the Golgi region and further on also at the nucleus

Compound: CN(C)c1ccc(/C=C2\CCC/C(=C\c3ccc(N(C)C)c(Cl)c3)C2=O)cc1Cl [cyclic-Cl, (2E,6E)-2,6-bis[3-chloro-4-(dimethylamino)benzylidene]cyclohexanone]
- subcellular localization: initially localize more abundantly at the Golgi region and further on also at the nucleus

Reference: patent publication EP3445348B1, “FLUORESCENT COMPOUNDS, PRODUCTION METHODS AND USES THEREOF” (Universidade de Aveiro, priority 2016, dated 2017)
